Test results taken from US8603764B2, “EphA kinase cancer diagnostic” (Case Western Reserve University, priority 2009, dated 2013).
“Also recorded” adds a separate entry of the source. For at least one compound, name, drawing or mass did not settle the structure.

How the values were obtained:
[1] = test system: EphA2 phosphorylation at Akt substrate sites; experiment: EphA2 precipitates probed with Akt-pSub antibody, U373 cells; format: cell-based, human; conditions: 10 μM added 1 hour prior serum-stimulation
pS897-EphA2 = experiment: Immunoblot with polyclonal anti-pS897-EphA2, U373 cells; format: cell-based, human; conditions: serum-starved U373 cells pretreated with 10 μM inhibitor (SH-5 30 min; LY294002 1 hour), FBS 10 min
Procedure: For stationary cells, sub-confluent cells were stimulated with 1 μg/ml ephrinA1-Fc for different times. To study the signaling events in migrating cells, the monolayer of freshly confluent cells was wounded by repeated scratch-wounding using a multichannel pipette. By doing so, the cells on the wound edges were induced to migrate. Four hours after wounding cells were stimulated with 1 μg/ml ephrinA1-Fc for different times. To look at the serum-induced signaling, cells were starved in serum-free medium overnight before stimulation or wounding. Both stationary and wounded cells were stimulated with 10% FBS in the presence of 1 μg/ml Fc or ephrinA1-Fc. Immunoprecipitation and immunoblot were performed as described previously (Nat. Cell Biol. 2, 62-69).

O=c1cc(N2CCOCC2)oc2c(-c3ccccc3)cccc12 [LY294002]
serum-induced EphA2 phosphorylation at Akt substrate sites [1]: abolished; also recorded: significantly reduced the phosphorylation of EphA2 at Akt substrate sites | serum-induced pS897-EphA2 (S897 phosphorylation) (pS897-EphA2): suppressed S897 phosphorylation; also recorded: abolishes serum-induced pS897-EphA2
